Each number is a percent effect as filed. How 0% and 100% were set is not recorded. Most values in the screen are low, and negative values occur. This is an unselected part of the compounds tested.

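Whole-cell assay for inhibitors of Mycobacterium tuberculosis growth, labelled Cornell in the record; the read-out is not stated. The concentration is filed as 10 mM, unlikely as a test dose, so the dose is not known. Higher means stronger inhibition (inferred from two other growth screens of the library). Size under these conditions: about 53,000 compounds, about 900 of them at 50% or above in at least one test.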

compound | effect
CC1CCN(S(=O)(=O)NCC2CCOc3ccccc3C2)CC1 (stereo not drawn) | 31.22%
CCS(=O)(=O)N1CCN(C(=O)C(C)C)CC2(CC(=O)N(C)C2)C1 (stereo not drawn) | 3.352%
CCCn1cc(C(=O)NCCc2ccncc2)c(C)n1 | -6.695%
Cc1nccn1C1(C(=O)O)CCN(Cc2ccc3nsnc3c2)CC1 | 4.337%
CN1CCCC1c1ccnc(C(=O)N(C)C2CCCCC2)c1 (stereo not drawn) | -7.626%
Cc1cnn(CC2CCCN2C(=O)c2c(C)noc2C)c1 (stereo not drawn) | -23.79%
CC(C)CN1CC(c2nc(-c3ccc(F)cc3)c[nH]2)CC1=O (stereo not drawn) | 24.91%
Cc1ccccc1-n1cc(CNc2ncnc3c2CCNCC3)cn1 | 30.26%
[H][C@@]12C[C@H](C(=O)Nc3cccnc3)CN(Cc3ccc(C)o3)[C@]1([H])CCO2 | -51.08%
Cc1nc(CNC(=O)NCCc2ccc(N(C)C)cc2)cs1 | 3.69%
O=C1CCSCC(C(=O)N2CCC(O)CC2)N1 (stereo not drawn) | 8.29%
O=S(=O)(C1CC1)N1CCC2(CC1)CC(Oc1ccccn1)CO2 (stereo not drawn) | 17.89%
CCc1cc(N2CCN(c3ccc(Cl)cn3)CC2)n2nccc2n1 | 1.989%
OC(CNCCn1cccn1)c1ccc(Br)cc1 (stereo not drawn) | -13.73%
[H][C@@]12CCCN1C[C@@H](CCSC)N(Cc1coc3ccc(Cl)cc3c1=O)C2 | 13.94%
CCOC(=O)C1CCN(c2nccc(-n3nc(C)cc3C)n2)CC1 | 41.56%
Cc1nc2sccn2c1C(=O)N1CCn2nc(C(=O)NC3CC3)cc2C1 | -11.28%
CN(Cc1ccccc1)C(=O)CN1CCCC1c1cnn(C)c1 (stereo not drawn) | 1.45%
CCNC(=O)c1cnc(Sc2nccn2C)c(Cl)c1 | 7.698%
CCn1c(CN(C)C)nnc1C1CCN(Cc2cccc(F)c2F)CC1 | 19.05%
CCOc1cc(NC(=O)N2CCOC3(CCC3)C2)ccc1C | 15.3%
O=C(NCC1CCC2(CC1)OCCO2)c1cccc(-n2cccn2)c1 | -8.842%
O=C(O)C(F)(F)F.[H][C@@]12CCCO[C@]1([H])[C@H](NC(=O)c1ccnnc1)CN(c1ncccn1)C2 | 11.86%
CC1(c2ccc(Br)cc2)CC(=O)N(CCC#N)C1=O (stereo not drawn) | -24.1%
O=C(O)c1ccccc1-c1ccc(CN2CC(O)C2)cc1 | -15.2%
c1nc(N2CCOC(Cn3cncn3)C2)c2sccc2n1 (stereo not drawn) | -17.64%
Cc1cc(CNC2CCc3nc(C(C)C)nn3C2)on1 (stereo not drawn) | 11.41%
Cc1cnc(N2CCC3(CCN(CC4CCCC4)C3=O)CC2)nc1.O=C(O)C(F)(F)F | 32.93%
COc1c(CNCCc2c[nH]c3cc(F)ccc23)c(C(C)C)nn1C | 40.34%
CC(C)N1CCC(Cc2cncc(-c3cc(F)ccc3C(=O)O)n2)CC1 | -82.41%
O=C1COC2(CCN(Cc3ccncc3)CC2)CN1CC1CC1 | -11.99%
O=C(O)C(F)(F)F.[H][C@@]12CCN(Cc3ccc(C)o3)C[C@@]1([H])O[C@@H](c1nnc(C)[nH]1)C2 | -9.556%
CC1CCN(CC2CCN(C(=O)c3c[nH]c4ncccc34)CC2)CC1 | -21.75%
COc1ccc(-c2n[nH]cc2CN(C)CCCN2CCOCC2)c(F)c1 | 8.6%
c1cncc(CN2CCCC(Nc3ncnc4c3CCNCC4)C2)c1 (stereo not drawn) | 12.4%
Cc1cnn(CCCNC(=O)NCCC(=O)Nc2ccccc2)c1 | 12.78%
O=C(O)C(F)(F)F.O=C(O)C(F)(F)F.[H][C@@]12CN(Cc3ccncc3)CCC[C@]1(C(=O)O)CN(c1ncccn1)C2 | 6.361%
CCOC1COC2(CCN(S(=O)(=O)c3cccc(F)c3)CC2)C1 (stereo not drawn) | 11.84%
CCC[C@H]1CN(c2nc(CO)cs2)C[C@@H]1NC(=O)C1CCC1 | 52.87%
COCCS(=O)(=O)NC(C)c1cccc(C)c1C (stereo not drawn) | -33.08%
Cc1c(-c2cnn(C)c2)nc(N)c(C#N)c1-c1ccc(CO)o1 | -13.37%
CC1CN(CC2CCCC2)CCN1c1ccc2nncn2n1 (stereo not drawn) | -4.559%
Cc1nnc(NC(=O)CCc2c(C)nn3cnnc3c2C)s1 | 14.82%
CC(=O)NCC(=O)N1CCOCC(Cc2ccc3c(ccn3C)c2)C1 (stereo not drawn) | 28.16%
CCC(CO)N(Cc1ccccn1)Cc1c[nH]nc1-c1ccc(F)cc1 (stereo not drawn) | 21.57%
CC(C)c1n[nH]c(C2CN(C(=O)c3cc(Cl)c[nH]3)CCO2)n1 (stereo not drawn) | -11.49%
Cn1nc2c(cc1=O)CN(CCCOc1ccc(C#N)cc1)CC2 | 37.06%
Cc1cc(C)n(CC2CN(CC(=O)NC3CCCCC3)CCO2)n1 (stereo not drawn) | -10.09%
O=C(c1cscn1)N1CCC2(CC1)CCN(S(=O)(=O)c1ccccc1)C2 | -21.69%
O=C(CC(SC1CCCCC1)C(=O)O)c1ccc(Br)cc1 (stereo not drawn) | 52.8%
CC(CNC(=O)c1cccnc1)Oc1ccc(F)cc1 (stereo not drawn) | 2.798%

3 of the entries, repeated:

CN1CCCC1c1ccnc(C(=O)N(C)C2CCCCC2)c1 (stereo not drawn) gave -7.626%.
c1nc(N2CCOC(Cn3cncn3)C2)c2sccc2n1 (stereo not drawn) gave -17.64%.
CN(Cc1ccccc1)C(=O)CN1CCCC1c1cnn(C)c1 (stereo not drawn) gave 1.45%.

The values are deposited in ChEMBL (CHEMBL3988442, “University of Dundee, Small-Polar-MMV Screening Library” (2021)).